The text below walks through data of paper PMC5130018 (2016).

Assay [1] concerns the target T1, Clec9a on mouse Flt3L induced dendritic cells (FL-DCs) (mouse (endogenous in Flt3L induced bone marrow DCs)) (UniProt Q8BRU4).
T1 sequence: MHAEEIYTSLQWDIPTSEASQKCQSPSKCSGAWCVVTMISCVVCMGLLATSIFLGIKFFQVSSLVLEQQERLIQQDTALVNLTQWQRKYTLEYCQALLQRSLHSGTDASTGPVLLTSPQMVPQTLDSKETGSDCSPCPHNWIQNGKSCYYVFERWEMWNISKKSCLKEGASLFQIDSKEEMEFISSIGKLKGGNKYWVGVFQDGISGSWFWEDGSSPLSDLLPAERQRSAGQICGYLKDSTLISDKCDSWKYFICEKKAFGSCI
Nature of the assay: flow cytometry on cells; biotinylated peptide incubated with FL-DCs (Flt3L induced bone marrow DCs) at 4°C for 30min, washed with FACS buffer containing 2mM EDTA, stained with streptavidin-PE; only the binder purified. For orientation: In flow cytometry, cells or beads pass a laser one at a time.

The target of assay [2] is T2, mouse Clec9a expressed on HEK-293T cells (pIRES2-EGFP-mClec9a) (mouse) (UniProt Q8BRU4).
T2 sequence: T1 sequence
Nature of the assay: flow cytometry on cells; biotinylated peptide incubated with HEK-293T cells transfected with pIRES2-EGFP-mClec9a (wild type or single alanine mutants) at 4°C for 30min, washed with FACS buffer containing 2mM EDTA, stained with streptavidin-PE; only the binder purified.

These are yes or no findings as the source states them, for the method shown. Some binding calls cover weakened binding; strength is not graded here. For some assays here: Sequences can lack the tags named with a protein.

B1: biotinylated peptide SR (peptide)
peptide: SAHNPSSLTGSRGGGK
modifications: biotin on the C-terminal lysine (GGGK-biotin)
B1: the binding entry in assay [1] was “no binding”.

B2: WH-biotin (peptide WH with GGGK-biotin at the carboxyl terminal) (peptide)
peptide: WPRFHSSVFHTHGGGK
modifications: biotin on the C-terminal lysine (GGGK-biotin)
Regarding B2, the binding result in assay [2] was “binds”.

B3: biotinylated peptide IH (peptide)
peptide: IKTGPASLQNPHGGGK
modifications: biotin on the C-terminal lysine (GGGK-biotin)
With B3, in assay [1], the binding entry is “no binding”.

B4: GA-biotin (control peptide) (peptide)
peptide: GAGAAGGAGGGGGGGK
modifications: biotin on the C-terminal lysine (GGGK-biotin)
As for B4, the binding result in assay [2] is recorded as “no binding”.

B5: biotinylated peptide RW (peptide)
peptide: RPHRNGGRDQTWGGGK
modifications: biotin on the C-terminal lysine (GGGK-biotin)
For the molecule B5, the binding result in assay [1] is recorded as “no binding”.
